{
  "source": "PubChem BioAssay AID662",
  "about": "(National Center for Advancing Translational Sciences (NCATS), 2007)",
  "note": "Where “and” joins values, the source holds several entries; their conditions need not be identical. Equal entries are not always repeated. The list shows a part of the results. Further columns of the screen follow, without active or inactive calls. Compounds called inactive in the main read-out are mostly missing here. The note in brackets gives the kind of curve behind each potency; many fits are weak.",
  "data": [
    {"test": "Cell signaling CRE-BLA (Fsk stim)", "details": "CHO CRE-bla reporter (cAMP response element driving beta-lactamase), forskolin EC10, beta-lactamase ratio; measured here: 460 nm blue channel", "how_it_was_run": "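Forskolin analogue NKH 477 at EC10 stimulated CRE-driven beta-lactamase in CHO cells alongside compound dilution series. Beta-lactamase was measured with CCF4, excitation 405 nm, emission ratio 460/530 nm.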", "values": [
      {"compound": "COc1ccccc1C(=O)Nc1ccc(S(=O)(=O)Nc2cc(C)on2)cc1", "AC50": "10 µM [rising, single point]"},
      {"compound": "CC(C)CCn1cnc2c(cnn2-c2ccc(F)cc2)c1=O", "AC50": "10 µM [rising, single point]"},
      {"compound": "CC12CN3CCN(CC(C3)C1(O)CN1CCOCC1)C2", "note": "(centres undefined)", "AC50": "0.398 µM [rising, partial curve]"},
      {"compound": "CS(=O)(=O)N1CCN(c2nnc(-c3ccccc3)c3ccccc23)CC1", "AC50": "0.316 µM [rising, full curve, poor fit]"},
      {"compound": "Cc1ccc2c(Cl)cc(Cl)c(OCc3c(C)noc3C)c2n1", "AC50": "1 µM [falling, single point]"},
      {"compound": "Cc1ccc2[nH]c(=O)c(CN(Cc3ccco3)S(=O)(=O)c3c(C)ccc4nsnc34)cc2c1", "AC50": "25.1 µM [falling, single point]"},
      {"compound": "O=C(C1CCN(S(=O)(=O)c2cccnc2)CC1)N1CCN(c2ccccc2Cl)CC1", "AC50": "0.398 µM [falling, full curve]"},
      {"compound": "CCCCCC(=O)O[C@H](CC(=O)O)C[N+](C)(C)C", "AC50": "31.6 µM [falling, single point]"},
      {"compound": "N[C@@H](COP(=O)(O)O)C(=O)O", "AC50": "25.1 µM [falling, single point]"},
      {"compound": "CCOC(=O)c1cnn2c(C(F)F)cc(C3CC3)nc12", "AC50": "7.94 µM [rising, partial curve]"},
      {"compound": "O=C(O)Cc1coc(-c2ccc(F)cc2)n1", "AC50": "0.00631 µM [falling, full curve, poor fit]"},
      {"compound": "CCc1nnc(NC(=O)CSc2nc3c(c(=O)n2C)SC(C)C3)s1", "note": "(centres undefined)", "AC50": "2.51 µM [rising, full curve]"},
      {"compound": "CCCn1c(=NC(C)=O)c(C(=O)OCC)cc2c(=O)n3ccccc3nc21", "AC50": "10 µM [rising, partial curve]"},
      {"compound": "Fc1ccc(Nc2nc(-c3cccnc3)nc3ccccc23)cc1", "AC50": "10 µM [rising, partial curve]"},
      {"compound": "CCC(CC)n1[nH]c(=O)c2c(C)cc(C)nc21", "AC50": "10 µM [rising, single point]"},
      {"compound": "COc1cccc(OC)c1C(=O)Nc1cc(Cl)ccc1N1CCOCC1", "AC50": "0.794 µM [rising, full curve, poor fit]"},
      {"compound": "Cc1ccc2nc(-c3ccc(N)cc3)sc2c1S(=O)(=O)O", "AC50": "25.1 µM [rising, partial curve]"},
      {"compound": "CC1(C)Cc2ccccc2-c2nc(NCCCO)n(-c3ccccc3)c(=O)c21", "AC50": "2.51 µM [rising, partial curve]"},
      {"compound": "CC(C)NC(=O)CSCc1ccccc1Cl", "AC50": "0.00316 µM [falling, full curve, poor fit]"},
      {"compound": "CCOC(=O)C1=C(C)NC(=O)NC1c1cccnc1", "note": "(centres undefined)", "AC50": "0.00316 µM [falling, full curve, poor fit]"},
      {"compound": "COc1ccc(C2N=C(c3ccccc3)C(C)(C)N2O)cc1OC", "note": "(centres undefined)", "AC50": "1.58 µM [falling, partial curve]"},
      {"compound": "CCNc1ncc2nc(C)c(=O)n(C)c2n1", "AC50": "10 µM [rising, partial curve]"},
      {"compound": "Cc1nc(N2CCN(C(=O)c3ccco3)CC2)c2oc3ccccc3c2n1", "AC50": "2 µM [rising, full curve]"},
      {"compound": "COC(=O)Nc1c(-c2ccccc2)nc2ccccn12", "AC50": "0.01 µM [falling, full curve]"},
      {"compound": "O=C(Nc1ccc([N+](=O)[O-])cc1Cl)c1cc(Cl)ccc1O", "AC50": "1 µM [falling, full curve] and 501 nM [falling, full curve, poor fit]"},
      {"compound": "COc1ccccc1NC(=O)CSc1nc2nc(C)cc(C)c2c(=O)[nH]1", "AC50": "10 µM [rising, partial curve]"},
      {"compound": "Cn1cccc1C(=O)N1CCC2(CCCN(Cc3ccccc3)C2)CC1", "AC50": "5.01 µM [falling, single point]"},
      {"compound": "CCOc1ccc(Cc2nccc3cc(OCC)c(OCC)cc23)cc1OCC", "AC50": "1.26 µM [rising, full curve]"},
      {"compound": "Cc1ccc(-c2cc(C(F)(F)F)c(C#N)c(SCCC#N)n2)o1", "AC50": "3.16 µM [rising, partial curve]"},
      {"compound": "Cc1oc2nc(SCC(=O)N3CCCCC3)nc(N)c2c1C", "AC50": "3.98 µM [rising, full curve]"},
      {"compound": "Cc1ccccc1-n1c(SCC(=O)c2cc(C)n(C)c2C)nnc1-c1ccncc1", "AC50": "12.6 µM [rising, partial curve, poor fit]"},
      {"compound": "CC1(C)CC(=O)C(C=NCC2CCCO2)=C(O)C1", "note": "(centres undefined)", "AC50": "0.794 µM [rising, full curve]"},
      {"compound": "Cn1c(COc2ccccc2)nnc1SCC(=O)Nc1ccc(N2CCOCC2)c(Cl)c1", "AC50": "25.1 µM [rising, partial curve, poor fit]"},
      {"compound": "O=C(CCCSc1nc2ccccc2s1)Nc1nccs1", "AC50": "5.01 µM [falling, single point]"},
      {"compound": "COc1cccc(-c2cc(NCc3cccc(C)c3)ncn2)c1", "AC50": "2.51 µM [rising, full curve]"},
      {"compound": "CCOC(=O)C1CCN(C(=O)CSc2n[nH]c(=O)[nH]c2=O)CC1", "AC50": "3.98 µM [falling, partial curve]"},
      {"compound": "O=C(O)c1ccc(CSc2nnc(COc3ccc(Cl)cc3Cl)o2)cc1", "AC50": "15.8 µM [rising, single point]"},
      {"compound": "COc1cccc(Cn2c(=O)c(-c3cccc(C#N)c3)nc3cnc(Nc4ccccc4)nc32)c1", "AC50": "1.58 µM [rising, partial curve]"},
      {"compound": "CC(=O)Cc1nsc(NC(=O)c2ccc(-c3cccc(C(F)(F)F)c3)o2)n1", "AC50": "2.51 µM [falling, full curve]"},
      {"compound": "Cc1ccc2cccc(O)c2[n+]1[O-]", "AC50": "0.00398 µM [falling, full curve, poor fit]"},
      {"compound": "CCc1nnc(NC(=O)CSc2nc(-c3ccc(OC)cc3)ns2)s1", "AC50": "0.00398 µM [falling, full curve, poor fit]"},
      {"compound": "Cc1cnc(CNc2ccnc(-c3cccc(NS(C)(=O)=O)c3)n2)cn1", "AC50": "5.01 µM [rising, full curve]"},
      {"compound": "CC(=O)Nc1nn(C)c2nc3cc(C)ccc3cc12", "AC50": "15.8 µM [rising, partial curve]"},
      {"compound": "Cc1nc2nc3c(c(=O)n2[nH]1)CCC3", "AC50": "5.01 µM [rising, single point]"}
    ]}
  ]
}
